Source: the supplement of paper PMC9015667
Where a name gives a salt, the structure may show the parent alone. This is one part of the list. Many values rest on one well or one pass, so single values are uncertain.

Tests used:
Assay in all cases: reduction in cell viability relative to untreated/vehicle; higher = more growth inhibition
Settings in all cases: 200 nM; 72 h
[1] = system: M229P (parental melanoma line)
[2] = system: M229R (matched melanoma line resistant to BRAF inhibitors)
[3] = system: M238P (parental melanoma line)
[4] = system: M238R (matched melanoma line resistant to BRAF inhibitors)
[5] = system: M249P (parental melanoma line)
[6] = system: M249R (matched melanoma line resistant to BRAF inhibitors)
[7] = system: UACC62P (parental melanoma line)
[8] = system: UACC62R (matched melanoma line resistant to BRAF inhibitors)

Structure (SMILES) | reduction in cell viability [1] | reduction in cell viability [2] | reduction in cell viability [3] | reduction in cell viability [4] | reduction in cell viability [5] | reduction in cell viability [6] | reduction in cell viability [7] | reduction in cell viability [8]
Cn1c(CNc2ccc(C(=N)N)cc2)nc2cc(C(=O)N(CCC(=O)O)c3ccccn3)ccc21 [Dabigatran] | < 0% | < 0% | < 0% | < 0% | < 0% | < 0% | < 0% | < 0%
CC[C@]1(O)C[C@@H]2CN(CCc3c([nH]c4ccccc34)[C@@](C(=O)OC)(c3cc4c(cc3OC)N(C)[C@H]3[C@@](O)(C(=O)OC)[C@H](OC(C)=O)[C@]5(CC)C=CCN6CC[C@]43[C@@H]65)C2)C1 [Vinblastine Sulfate] | 46% | 52% | 69.3% | 49% | 55.4% | 51.9% | 61.3% | 88.2%
CCNC(=O)Nc1ccc(Oc2ncnc(N)c2/C=N/OC)cc1Cl | < 0% | < 0% | < 0% | < 0% | < 0% | < 0% | 15.1% | 17.2%
N#C/C(=C(/O)c1ccc(Cl)cc1Cl)c1nc2cc(Cl)ccc2c(=O)[nH]1 [Cilliobrevin D] | < 0% | < 0% | < 0% | < 0% | < 0% | < 0% | < 0% | < 0%
NC(=O)[C@@H](CCC(F)(F)F)N(Cc1ccc(-c2ncon2)cc1F)S(=O)(=O)c1ccc(Cl)cc1 [Avagacestat] | < 0% | < 0% | < 0% | < 0% | < 0% | < 0% | < 0% | 15.1%
C=C1c2cccc(O)c2C(=O)C2=C(O)[C@]3(O)C(=O)C(C(N)=O)=C(O)[C@@H](N(C)C)[C@@H]3[C@@H](O)[C@H]12 [Methacycline hydrochloride] | < 0% | < 0% | < 0% | < 0% | < 0% | < 0% | < 0% | < 0%
NC[C@H]1CC[C@H](C(=O)O)CC1 [Tranexamic acid] | < 0% | < 0% | < 0% | < 0% | < 0% | < 0% | < 0% | < 0%
Cc1ccc(C(=O)Nc2ccc(S(=O)(=O)O)c3cc(S(=O)(=O)O)cc(S(=O)(=O)O)c23)cc1NC(=O)c1cccc(NC(=O)Nc2cccc(C(=O)Nc3cc(C(=O)Nc4ccc(S(=O)(=O)O)c5cc(S(=O)(=O)O)cc(S(=O)(=O)O)c45)ccc3C)c2)c1 [Suramin sodium] | < 0% | < 0% | < 0% | < 0% | < 0% | 10.4% | 3.15% | < 0%
COc1ccnc2[nH]cc(C(=O)C(=O)N3CCN(C(=O)c4ccccc4)C[C@H]3C)c12 | < 0% | < 0% | < 0% | < 0% | < 0% | 1.24% | < 0% | < 0%
Cc1nnc(C(C)C)n1C1C[C@H]2CC[C@@H](C1)N2CC[C@H](NC(=O)C1CCC(F)(F)CC1)c1ccccc1 (stereo in doubt) [Maraviroc] | < 0% | < 0% | < 0% | < 0% | < 0% | 5.16% | < 0% | < 0%
N[C@@H]1CONC1=O [D-Cycloserine] | < 0% | 0.01% | < 0% | < 0% | < 0% | 1.19% | < 0% | < 0%
CCN1CCC[C@H]1CNC(=O)c1cc(S(N)(=O)=O)ccc1OC [Levosulpiride] | < 0% | < 0% | < 0% | < 0% | < 0% | < 0% | < 0% | < 0%
C[C@@H]1CN(Cc2ccc(F)cc2)[C@@H](C)CN1C(=O)c1cc2c(C(=O)C(=O)N(C)C)cn(C)c2cc1Cl [Talmapimod] | < 0% | < 0% | < 0% | < 0% | < 0% | < 0% | < 0% | < 0%
COc1ccc(C(=O)CC2(O)C(=O)Nc3c(Cl)ccc(Cl)c32)cc1 (stereo unspecified) | < 0% | 16.9% | < 0% | < 0% | < 0% | < 0% | < 0% | 3%
CNC(=O)[C@H](Cc1ccccc1)NC(=O)[C@H](CC(C)C)[C@H](CSc1cccs1)C(=O)NO [Batimastat] | < 0% | < 0% | < 0% | < 0% | < 0% | < 0% | < 0% | < 0%
CC1=C(C(=O)Nc2cc3cn[nH]c3cc2F)C(c2ccc(Cl)cc2F)N=C(c2ccnc(Cl)c2)N1 (stereo unspecified) | < 0% | 8.55% | < 0% | < 0% | < 0% | < 0% | < 0% | < 0%
Cc1cc(C(=O)N2CCN(c3cccc(Cl)c3)CC2)n(-c2ccccc2)n1 | < 0% | 6.19% | 1.88% | < 0% | < 0% | 3.51% | 27.1% | 40.4%
Cc1cc2c(F)c(Oc3ncnn4cc(OC[C@@H](C)O)c(C)c34)ccc2[nH]1 [Brivanib] | < 0% | < 0% | < 0% | < 0% | < 0% | < 0% | < 0% | < 0%
Cn1c(=O)c(Oc2ccc(F)cc2F)cc2cnc(NC3CCOCC3)nc21 | < 0% | < 0% | < 0% | < 0% | < 0% | < 0% | < 0% | < 0%
CC(C)C[C@H](NC(=O)[C@@H](O)[C@H](N)Cc1ccccc1)C(=O)O [Ubenimex] | < 0% | < 0% | < 0% | < 0% | < 0% | < 0% | < 0% | < 0%
C=C(c1ccc(C(=O)O)cc1)c1cc2c(cc1C)C(C)(C)CCC2(C)C [Bexarotene] | < 0% | < 0% | < 0% | < 0% | < 0% | < 0% | < 0% | < 0%

Structure (SMILES) | reduction in cell viability [1] | reduction in cell viability [2] | reduction in cell viability [3] | reduction in cell viability [4] | reduction in cell viability [5] | reduction in cell viability [6] | reduction in cell viability [7] | reduction in cell viability [8]
O=S(=O)(c1cccc2cnccc12)N1CCCNCC1 [Fasudil hydrochloride] | < 0% | < 0% | < 0% | < 0% | < 0% | < 0% | < 0% | < 0%
CN(C)CC(=O)N1CCC(c2ccc(NC(=O)c3ncc(C#N)[nH]3)c(C3=CCCCC3)c2)CC1 | < 0% | < 0% | < 0% | < 0% | < 0% | < 0% | < 0% | < 0%
O=C(CCN1CCN(C(=O)OCc2cc(Cl)cc(Cl)c2)CC1)c1ccc2[nH]c(=O)oc2c1 | < 0% | < 0% | < 0% | < 0% | < 0% | < 0% | < 0% | < 0%
O=C1NC(=O)/C(=C/c2ccc3c(c2)OC(F)(F)O3)S1 | < 0% | < 0% | < 0% | < 0% | 3.57% | < 0% | < 0% | < 0%
CCc1c2c(nc3ccc(OC(=O)N4CCC(N5CCCCC5)CC4)cc13)-c1cc3c(c(=O)n1C2)COC(=O)[C@]3(O)CC [Irinotecan] | < 0% | 13.4% | 6.63% | 10.4% | 22.1% | 28.2% | 16.6% | 13.1%
CCC(CC)CC1(C(=O)Nc2ccccc2SC(=O)C(C)C)CCCCC1 [Dalcetrapib] | < 0% | < 0% | < 0% | < 0% | < 0% | < 0% | < 0% | < 0%
CCC[C@H](Nc1nc(-c2ccc(NC(=O)NCC)c(OC)c2)ncc1C)c1cccnc1 [Lexibulin hydrochloride] | 45.2% | 54.8% | 56.6% | 61.2% | 62.3% | 52.9% | 52.8% | 84.6%
Cc1cc(C2CCCCC2)n(O)c(=O)c1 [Ciclopirox] | 6.2% | 15.8% | 30.4% | 5.7% | 21.5% | 38.8% | 16.1% | 41.3%
Cc1nn(Cc2ccccc2Cl)c(C)c1CN(C)CC(O)COc1ccc(Cl)cc1 (stereo unspecified) | < 0% | < 0% | < 0% | < 0% | < 0% | < 0% | 7.91% | < 0%
Cc1csc(NC(=O)CSc2nc3c(c(C(F)(F)F)c2C#N)CCC3)n1 [Irestatin 9389] | < 0% | < 0% | < 0% | < 0% | < 0% | < 0% | 1.87% | < 0%
Oc1nc(-c2ccc(C(F)(F)F)cc2)nc2c1CSCC2 | < 0% | < 0% | < 0% | < 0% | < 0% | < 0% | 7.94% | < 0%
COc1c(C)c2c(c(O)c1C/C=C(\C)CCC(=O)O)C(=O)OC2 [Mycophenolic acid] | < 0% | < 0% | < 0% | < 0% | < 0% | < 0% | < 0% | < 0%
CCCCCCCCCCC[C@@H](C[C@@H]1OC(=O)[C@H]1CCCCCC)OC(=O)[C@H](CC(C)C)NC=O [Orlistat] | < 0% | < 0% | < 0% | < 0% | < 0% | < 0% | < 0% | < 0%
O=C(O)C(Cc1c[nH]c2ccccc12)N1C(=O)c2ccccc2C1=O (stereo unspecified) | < 0% | < 0% | < 0% | < 0% | < 0% | < 0% | 18.7% | 7.88%
CCCCCCCCCC(=O)N[C@@H](Cc1c[nH]c2ccccc12)C(=O)N[C@H](CC(N)=O)C(=O)N[C@@H](CC(=O)O)C(=O)N[C@@H]1C(=O)NCC(=O)N[C@@H](CCCN)C(=O)N[C@@H](CC(=O)O)C(=O)N[C@H](C)C(=O)N[C@@H](CC(=O)O)C(=O)NCC(=O)N[C@H](CO)C(=O)N[C@@H]([C@H](C)CC(=O)O)C(=O)N[C@@H](CC(=O)c2ccccc2N)C(=O)O[C@@H]1C [Daptomycin] | < 0% | < 0% | < 0% | < 0% | < 0% | < 0% | < 0% | < 0%
COc1ccc(C(=O)CC(=O)c2ccc(C(C)(C)C)cc2)cc1 [Avobenzone] | < 0% | < 0% | < 0% | < 0% | < 0% | < 0% | < 0% | < 0%
CO/N=C(\C(=O)N[C@@H]1C(=O)N2C(C(=O)O)=C(CSC(=O)c3ccco3)CS[C@H]12)c1csc(N)n1 [Ceftiofur] | < 0% | < 0% | < 0% | < 0% | < 0% | < 0% | < 0% | < 0%
COc1ccc(CCN2CCN(CCCc3ccccc3)CC2)cc1OC [Cutamesine hydrochloride] | 3.19% | 18.3% | < 0% | < 0% | < 0% | < 0% | 2.69% | < 0%
O=C(O)/C=C/c1ccc(O)c(O)c1 [Caffeic acid] | < 0% | < 0% | < 0% | < 0% | < 0% | < 0% | < 0% | < 0%
CC(NCCc1ccc(O)cc1)C(O)c1ccc(O)cc1 (stereo unspecified) [Ritodrine hydrochloride] | < 0% | < 0% | < 0% | < 0% | < 0% | < 0% | < 0% | < 0%
Cc1ccn(-c2ccc(-c3ncco3)cc2)c(=O)c1-c1ccc2nc(N)ncc2c1 | < 0% | < 0% | < 0% | < 0% | < 0% | < 0% | < 0% | < 0%

Of the compounds above, these contain an aryl thioether with sulfur outside any ring.
Structure (SMILES) | reduction in cell viability [1] | reduction in cell viability [2] | reduction in cell viability [3] | reduction in cell viability [4] | reduction in cell viability [5] | reduction in cell viability [6] | reduction in cell viability [7] | reduction in cell viability [8]
CNC(=O)[C@H](Cc1ccccc1)NC(=O)[C@H](CC(C)C)[C@H](CSc1cccs1)C(=O)NO [Batimastat] | < 0% | < 0% | < 0% | < 0% | < 0% | < 0% | < 0% | < 0%
Cc1csc(NC(=O)CSc2nc3c(c(C(F)(F)F)c2C#N)CCC3)n1 [Irestatin 9389] | < 0% | < 0% | < 0% | < 0% | < 0% | < 0% | 1.87% | < 0%
